In the assay the target is zebrafish P2X4 receptor (residues 9-382) (zebrafish) (UniProt F8W463). The assay can be described thus: cryo-EM structure; purified zfP2X4 in PMAL-C8 amphipol, incubated with 50 uM BX430 or 125 uM BAY-1797 for 1 h; C3 symmetry imposed, also processed with C1 symmetry; both purified.

These are yes or no findings as the source states them, for the method shown. Some binding calls cover weakened binding; strength is not graded here.

B1: zebrafish P2X4 receptor (residues 9-382) (receptor, UniProt F8W463 9-382, looked up)
chain: DSVSQCFFDYYTSKILIIRSKKVGTLNRFTQALVIAYVIGYVCVYNKGYQDTDTVLSSVTTKVKGIALTNTSELGERIWDVADYIIPPQEDGSFFVLTNMIITTNQTQSKCAENPTPASTCTSHRDCKRGFNDARGDGVRTGRCVSYSASVKTCEVLSWCPLEKIVDPPNPPLLADAENFTVLIKNNIRYPKFNFNKRNILPNINSSYLTHCVFSRKTDPDCPIFRLGDIVGEAEEDFQIMAVHGGVMGVQIRWDCDLDMPQSWCVPRYTFRRLDNKDPDNNVAPGYNFRFAKYYKNSDGTETRTLIKGYGIRFDVMVFGQAGKFNIIPTLLNMGAGLALLGLVNVICDWIVLTFMKRKQHYKEQKYTYVDDFG
notes: P2X4 receptor, zebrafish (Danio rerio), GenBank AAH66495.1, residues 9-382 (truncation of the N-terminal 8 and the C-terminal 7 residues); Homotrimer; A C-terminal HRV 3C site stood before TGP and the Twin-Strep-tag; residues of the site may remain after cleavage; also called zfP2X4; source: Sf9 (baculovirus), purified (Strep-Tactin, HRV 3C cleavage, SEC), reconstituted into PMAL-C8 amphipol; not …
B1: the binding result is given as “binds”.

The values above are taken from article PMC10575874, “Structural insights into the allosteric inhibition of P2X4 receptors” (Nature Communications, 2023).
